# Measured values from article PMC4317163.
# Results are given in words; binding and its absence hold for the method and conditions named. Some results given as binding are weak or reduced against the parent protein; the word gives no strength. Where a sequence is shown, tags or fusion partners need not be part of it.
# T1: CP190 fused to the GAL4 DNA-binding domain (Drosophila) (UniProt Q24478)
# T1 sequence: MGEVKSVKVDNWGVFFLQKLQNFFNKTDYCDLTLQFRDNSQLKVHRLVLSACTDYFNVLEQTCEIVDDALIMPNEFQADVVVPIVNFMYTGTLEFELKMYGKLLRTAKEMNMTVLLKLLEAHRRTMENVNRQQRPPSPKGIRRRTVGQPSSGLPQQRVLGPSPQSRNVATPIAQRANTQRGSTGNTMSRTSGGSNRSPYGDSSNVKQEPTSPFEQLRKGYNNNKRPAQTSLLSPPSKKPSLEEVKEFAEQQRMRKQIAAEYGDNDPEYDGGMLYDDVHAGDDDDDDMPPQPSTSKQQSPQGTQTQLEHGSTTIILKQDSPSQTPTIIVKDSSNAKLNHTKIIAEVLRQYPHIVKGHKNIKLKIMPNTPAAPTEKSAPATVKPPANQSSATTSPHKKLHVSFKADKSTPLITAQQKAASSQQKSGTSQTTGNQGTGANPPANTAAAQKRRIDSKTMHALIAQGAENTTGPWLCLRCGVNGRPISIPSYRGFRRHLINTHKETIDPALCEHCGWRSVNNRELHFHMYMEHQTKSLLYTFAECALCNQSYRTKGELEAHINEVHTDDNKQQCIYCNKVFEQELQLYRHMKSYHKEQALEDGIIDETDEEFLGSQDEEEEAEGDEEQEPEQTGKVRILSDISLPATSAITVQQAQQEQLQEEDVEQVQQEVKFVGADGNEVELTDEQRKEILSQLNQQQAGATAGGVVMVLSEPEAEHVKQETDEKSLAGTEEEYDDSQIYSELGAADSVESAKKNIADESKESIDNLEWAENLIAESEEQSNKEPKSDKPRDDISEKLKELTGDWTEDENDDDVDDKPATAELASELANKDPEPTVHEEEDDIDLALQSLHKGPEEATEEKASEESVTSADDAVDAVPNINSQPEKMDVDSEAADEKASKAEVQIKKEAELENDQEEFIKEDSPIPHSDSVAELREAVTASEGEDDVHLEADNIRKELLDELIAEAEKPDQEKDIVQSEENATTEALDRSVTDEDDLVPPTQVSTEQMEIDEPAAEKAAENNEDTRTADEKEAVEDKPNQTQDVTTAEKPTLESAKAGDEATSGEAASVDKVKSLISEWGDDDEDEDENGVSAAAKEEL
# B1: dCTCF (yeast two-hybrid) (protein, UniProt Q9VS55 1-818)
# chain: MPRRTKKDEDPEDLQTFLNNFHKEIEGNSDEKVVNTILEAISAEAIDLDENGAEAGGSKPMEEAEADLDHAEEAEEEEEDDEDKYFIDDEGNCYIKTTPKKQKELQKKLKQAAAKPGKATRSVVSTATNKSINLRPAKSTPKATTSKPPPEPKAISVRPARAAAAKAKQSAMPPPPALVVKVPAPRGRPRKNPVIPKPEPMDLERELEELVDEPDISSMVTELSDYTVDEAAVEAATATLTPNEAEVYEFEDNATTEDENADKKDVDFVLSNKEVKLKTASSTSQNSNASGHKYSCPHCPYTASKKFLITRHSRSHDVEPSFKCSICERSFRSNVGLQNHINTHMGNKPHKCKLCESAFTTSGELVRHTRYKHTKEKPHKCTECTYASVELTKLRRHMTCHTGERPYQCPHCTYASQDMFKLKRHMVIHTGEKKYQCDICKSRFTQSNSLKAHKLIHSVVDKPVFQCNYCPTTCGRKADLRVHIKHMHTSDVPMTCRRCGQQLPDRYQYKLHVKSHEGEKCYSCKLCSYASVTQRHLASHMLIHLDEKPFHCDQCPQAFRQRQLLRRHMNLVHNEEYQPPEPREKLHKCPSCPREFTHKGNLMRHMETHDDSANAREKRRRLKLGRNVRLQKDGTVITLIKDQYVDMDRDQEENEEDDNPESYDLAEIEPENSEAEDADDDVETIVSDPIRQRIKPAPIIINKQARLAASEKQPMIINQRLRSQRGTKTFHIKEEPDNSDFTVEWQGDDGEVMVVELVNGDEEVLVKHEPSANSKISAKNCFGFEDDDDYEEYGDGENEVDGASQEFLQLMDMIEQDS
# B2: ZIPIC fragment 3–167aa fused to the GAL4 activating domain (domain or fragment, UniProt Q9VAB8 3-167)
# chain: CCICQFSVRVPKDIHTDTVGHPPVLISELVLQCTRGTNYVLTEESSTICKKCCEKLARYHKSIQIARKLRGEILELIHSPYMSKDHKQTSYKEDDLDRETTISKFDGNIEEAQQQDEEEQELESVGTTVTLVGPAGIVEEVAEEEHTFIIKQSEEEDEFHSVDLE
# B3: ZIPIC fused to the GAL4 activating domain (protein, UniProt Q9VAB8 1-457)
# chain: MNCCICQFSVRVPKDIHTDTVGHPPVLISELVLQCTRGTNYVLTEESSTICKKCCEKLARYHKSIQIARKLRGEILELIHSPYMSKDHKQTSYKEDDLDRETTISKFDGNIEEAQQQDEEEQELESVGTTVTLVGPAGIVEEVAEEEHTFIIKQSEEEDEFHSVDLELDIDNEIIINEEEAHEVEEVAHEIEEVAHEIEEEDLLPHDKQEAQEEDFFKEDTMSDFDEHLDGAIEYIISDGEDQEQDNESSGEYTVNIQCPSCPEKFSSRRAYNVHTKREHFPGYVCDQCGKTLQSYSGFIGHLQNHEPVKQFACPVCPERFSRKFRLKHHMAWHSGETPYQCDVCSKRFVHKVALYKHKMIHDSETKRLECQVCGFKTRTKAHLERHMRSHTGDKPFACPVCNKRFSQMYNMKAHLREHESPGTNRHRRFHCSKCTHTFINEQNYDAHVQRDDCTPV
# B4: ZIPIC fragment 162–274aa fused to the GAL4 activating domain (domain or fragment, UniProt Q9VAB8 162-274)
# chain: HSVDLELDIDNEIIINEEEAHEVEEVAHEIEEVAHEIEEEDLLPHDKQEAQEEDFFKEDTMSDFDEHLDGAIEYIISDGEDQEQDNESSGEYTVNIQCPSCPEKFSSRRAYNV
# B5: Pita fused to the GAL4 activating domain (protein, UniProt Q95RQ8 1-683)
# chain: MAAKLEVREAMLTEKRVCRFCLTEQKLASIFEENPRVKTTANLPLQIMAITAIEVYAGDGMPGHICLECRLLFEHCYRFKQMCKRAETLLRQYPLTGNWPSPLEKPRAPMTMVASKKLLVVPAKTAEPSETPKKLLNTMAKSSSQVIIEDVQVLESAMVTPRTVAGSSPVPRRSHAYELKVDNNQELSMDDVQSMLEDMASELEKEFPDIPQKASPVKPKVLNKSSIRILNKGPAAPVEPRLATPKVKRDDSGNVAIVTEVLDSDLPLDDQDDPTKNAEKVATDVFPCPDCERSFPLQQLLEIHRLNHTRSRSFQCLLCEKSFFSKYDLAKHNFVHTGERPFKCAICSKAFTRKALLHRHERTHTDVPKFICVYCEKPFLSRQEMEKHAERHQKKRPFQCGVCTKSFAFKQGLERHETVHSTNLPFPCQHCERSFSTASKLARHLVAHAGKRAYPCKYCHKSYMLSHHLSRHLRTHTQTSDASFVCSECKVSYSNYNDLLDHALIHATASLKCPMCRKQIEDIDSVESHMDQHKQSERHACEFCDHIFLTQKCLQRHIEDDHVVEMEPYQNEFEDDGEGEGGVDEKEEHLDDFEDMDNVKQEEFVTEYLEDDALYEDHLDDSDESFTPPPPKQRKTNPPKDAQQSVRQTRSRDAQRITQKTGKNEGKPHHKLERNLKNRRSAK
# Biological target: T1, CP190 fused to the GAL4 DNA-binding domain (Drosophila)
# Assay: two-hybrid; yeast strain pJ69-4A, Clontech plasmids; CP190 or its fragments fused to the GAL4 DNA-binding domain, Pita/ZIPIC or their fragments fused to the GAL4 activating domain; growth on media without tryptophan, leucine, histidine and adenine, 30°C
row,binding,Binder
1,binds,B1
2,binds,B2
3,binds,B3
4,binds,B4
5,binds,B5
